According to paper PMC3667844:
Results are given in words; binding and its absence hold for the method and conditions named. For some of these results: In cells and extracts the contact can be indirect. For some of these results: Sequences can lack the tags named with a protein.

The chains behind the UniProt entries cited, without tags or fusion partners. Where a name states a change or a piece, a line headed by the entry shows the natural chain unless it says otherwise.
UniProt P20340: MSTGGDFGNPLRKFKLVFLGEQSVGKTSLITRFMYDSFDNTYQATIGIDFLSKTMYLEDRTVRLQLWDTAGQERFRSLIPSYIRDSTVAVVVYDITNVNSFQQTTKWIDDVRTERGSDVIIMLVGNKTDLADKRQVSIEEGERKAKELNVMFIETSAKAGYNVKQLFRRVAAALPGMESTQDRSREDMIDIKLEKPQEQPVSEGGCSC
UniProt Q9NRW1: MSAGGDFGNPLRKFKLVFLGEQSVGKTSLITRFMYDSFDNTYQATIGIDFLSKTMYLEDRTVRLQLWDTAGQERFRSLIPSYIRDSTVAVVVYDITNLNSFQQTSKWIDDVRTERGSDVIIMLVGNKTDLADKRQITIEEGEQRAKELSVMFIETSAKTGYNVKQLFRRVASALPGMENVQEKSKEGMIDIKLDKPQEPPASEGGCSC

Tests used:
[1] = biological target: pAS Rab6A Q72L (UniProt P20340); test: two-hybrid; Y190 co-transformed with prey (pP6 or pACT) and bait (pAS) plasmids; growth on synthetic medium lacking leucine, tryptophan and histidine with 30 mM 3 AT (his3)
[2] = biological target: pAS Rab6B T27N (UniProt Q9NRW1); test: as above
[3] = biological target: pAS Rab6B Q72L (UniProt Q9NRW1); test: as above
[4] = biological target: pAS Rab6A T27N (UniProt P20340); test: as above
[5] = biological target: pAS Rab6A wt (UniProt P20340); test: as above
[6] = biological target: pAS Rab6B wt (UniProt Q9NRW1); test: as above
[7] = biological target: pAS Rab6A Q72L (UniProt P20340); test: two-hybrid; Y190 co-transformed with prey (pP6 or pACT) and bait (pAS) plasmids; β-galactosidase reporter activity on replica filters with X-gal (β-gal)
[8] = biological target: pAS Rab6B T27N (UniProt Q9NRW1); test: as above
[9] = biological target: pAS Rab6B Q72L (UniProt Q9NRW1); test: as above
[10] = biological target: pAS Rab6A T27N (UniProt P20340); test: as above
[11] = biological target: pAS Rab6A wt (UniProt P20340); test: as above
[12] = biological target: pAS Rab6B wt (UniProt Q9NRW1); test: as above
[13] = biological target: ECFP Rab6B Q72L (UniProt Q9NRW1); test: FRET or BRET; flow cytometry based FRET in co-transfected HeLa T-REx cells; ECFP and EYFP fusions, EYFP fluorescence (550 nm) from 405 nm excitation of double positive cells
[14] = biological target: ECFP Rab6A Q72L (UniProt P20340); test: as above

binding [1] | binding [2] | binding [3] | binding [4] | binding [5] | binding [6] | binding [7] | binding [8] | binding [9] | binding [10] | binding [11] | binding [12] | binding [13] | binding [14] | Binder
no binding | no binding | no binding | no binding | no binding | no binding | no binding | no binding | no binding | no binding | no binding | no binding |  |  | pACT Mint1 PTB (aa 438–625) (domain or fragment, UniProt Q02410-1 438-625) ASFPTYVEVPGPCDPEDLIDGIIFAANYLGSTQLLSDKTPSKNVRMMQAQEAVSRIKMAQKLAKSRKKAPEGESQPMTEVDLFISTQRIKVLNADTQETMMDHPLRTISYIADIGNIVVLMARRRMPRSNSQENVEASHPSQDGKRQYKMICHVFESEDAQLIAQSIGQAFSVAYQEFLRANGINPED
 |  |  |  |  |  |  |  |  |  |  |  | no binding | no binding | EYFP Mint1 PTB (domain or fragment, UniProt Q02410-1 438-625) ASFPTYVEVPGPCDPEDLIDGIIFAANYLGSTQLLSDKTPSKNVRMMQAQEAVSRIKMAQKLAKSRKKAPEGESQPMTEVDLFISTQRIKVLNADTQETMMDHPLRTISYIADIGNIVVLMARRRMPRSNSQENVEASHPSQDGKRQYKMICHVFESEDAQLIAQSIGQAFSVAYQEFLRANGINPED
no binding | no binding | no binding | no binding |  |  | no binding | no binding | no binding | no binding |  |  |  |  | pACT Mint1, full length conventional Mint1 (NM_001163.3) (protein, UniProt Q02410-1 1-837) MNHLEGSAEVEVTDEAAGGEVNESVEADLEHPEVEEEQQQPPQQQHYVGRHQRGRALEDLRAQLGQEEEERGECLARSASTESGFHNHTDTAEGDVIAAARDGYDAERAQDPEDESAYAVQYRPEAEEYTEQAEAEHAEATHRRALPNHLHFHSLEHEEAMNAAYSGYVYTHRLFHRGEDEPYSEPYADYGGLQEHVYEEIGDAPELDARDGLRLYEQERDEAAAYRQEALGARLHHYDERSDGESDSPEKEAEFAPYPRMDSYEQEEDIDQIVAEVKQSMSSQSLDKAAEDMPEAEQDLERPPTPAGGRPDSPGLQAPAGQQRAVGPAGGGEAGQRYSKEKRDAISLAIKDIKEAIEEVKTRTIRSPYTPDEPKEPIWVMRQDISPTRDCDDQRPMDGDSPSPGSSSPLGAESSSTSLHPSDPVEASTNKESRKSLASFPTYVEVPGPCDPEDLIDGIIFAANYLGSTQLLSDKTPSKNVRMMQAQEAVSRIKMAQKLAKSRKKAPEGESQPMTEVDLFISTQRIKVLNADTQETMMDHPLRTISYIADIGNIVVLMARRRMPRSNSQENVEASHPSQDGKRQYKMICHVFESEDAQLIAQSIGQAFSVAYQEFLRANGINPEDLSQKEYSDLLNTQDMYNDDLIHFSKSENCKDVFIEKQKGEILGVVIVESGWGSILPTVIIANMMHGGPAEKSGKLNIGDQIMSINGTSLVGLPLSTCQSIIKGLKNQSRVKLNIVRCPPVTTVLIRRPDLRYQLGFSVQNGIICSLMRGGIAERGGVRVGHRIIEINGQSVVATPHEKIVHILSNAVGEIHMKTMPAAMYRLLTAQEQPVYI
